The test deals with T1, DRF1 (DBF4 related factor 1) (human (endogenous in MCF10A)) (UniProt Q8NFT6).
T1 sequence: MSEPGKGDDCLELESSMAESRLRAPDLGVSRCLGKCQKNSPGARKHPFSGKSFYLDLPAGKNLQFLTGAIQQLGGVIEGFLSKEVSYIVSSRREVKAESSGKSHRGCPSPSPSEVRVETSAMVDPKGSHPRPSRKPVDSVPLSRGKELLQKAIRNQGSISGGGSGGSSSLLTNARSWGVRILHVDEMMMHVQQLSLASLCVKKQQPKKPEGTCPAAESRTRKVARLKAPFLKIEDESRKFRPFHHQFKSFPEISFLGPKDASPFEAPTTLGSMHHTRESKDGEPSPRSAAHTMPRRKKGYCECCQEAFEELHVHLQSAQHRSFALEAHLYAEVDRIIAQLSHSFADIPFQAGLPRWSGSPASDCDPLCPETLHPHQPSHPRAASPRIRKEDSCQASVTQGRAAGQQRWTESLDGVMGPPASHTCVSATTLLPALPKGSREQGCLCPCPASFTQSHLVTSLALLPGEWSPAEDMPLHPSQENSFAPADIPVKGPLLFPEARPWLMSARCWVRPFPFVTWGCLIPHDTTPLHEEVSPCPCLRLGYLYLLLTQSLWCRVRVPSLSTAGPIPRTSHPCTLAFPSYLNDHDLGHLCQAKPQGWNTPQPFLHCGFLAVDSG
Kind of test: co-IP; anti-DRF1 mAb 5G4 (or mouse IgG as control) prebound to protein A/G beads; 1 mg precleared MCF10A EditR lysate in CSK buffer (300 mM NaCl, 10 mM PIPES pH 6.8, 300 mM sucrose, 1.5 mM MgCl2, 1 mM DTT, 0.5% Triton X-100); 2 h at 4°C; 5 washes; CDC7 detected by western blot.

Chains of the proteins cited; added tags and fusions are not shown.
UniProt O00311: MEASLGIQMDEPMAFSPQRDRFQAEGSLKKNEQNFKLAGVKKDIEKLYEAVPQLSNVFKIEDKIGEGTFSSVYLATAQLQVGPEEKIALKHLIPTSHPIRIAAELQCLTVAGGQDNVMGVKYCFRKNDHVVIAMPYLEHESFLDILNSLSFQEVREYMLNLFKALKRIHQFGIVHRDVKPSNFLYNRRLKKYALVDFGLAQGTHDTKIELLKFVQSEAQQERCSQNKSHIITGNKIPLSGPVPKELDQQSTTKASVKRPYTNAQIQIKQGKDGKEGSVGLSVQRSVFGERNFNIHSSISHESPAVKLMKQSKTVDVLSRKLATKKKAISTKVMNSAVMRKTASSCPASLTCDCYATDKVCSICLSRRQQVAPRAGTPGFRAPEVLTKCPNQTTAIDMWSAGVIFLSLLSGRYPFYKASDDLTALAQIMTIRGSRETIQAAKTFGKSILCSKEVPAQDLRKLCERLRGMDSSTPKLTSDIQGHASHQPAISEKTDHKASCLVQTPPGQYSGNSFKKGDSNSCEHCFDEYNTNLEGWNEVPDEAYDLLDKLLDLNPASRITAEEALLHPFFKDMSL

Results are given in words; binding and its absence hold for the method and conditions named. In cells and extracts the contact can be indirect. Some entries that bind do so weakly or less than the wild type.

Consider “CDC7 kinase (from UniProt O00311 1-574) (enzyme)”, for which the binding result is recorded as “binds”.

These data come from paper PMC11169917.
